Laboratory results reported in PubChem BioAssay AID2685 (National Center for Advancing Translational Sciences (NCATS), 2010).
The other results are listed elsewhere or left out. The main result of the screen is listed elsewhere. These columns were measured beside it and carry no call. The list favours compounds with an active or inconclusive main result. Words in brackets tell the shape of the fitted curve; partial curves, single points and poor fits give uncertain potencies.

Assay: qHTS Assay for Lipid Storage Modulators in Drosophila S3 Cells;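 for cell number change: cells counted by Cell Tracker Red CMTPX staining in the red channel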
Details: BODIPY lipid droplet fluorescence, 18-24 h; for cell number change: measured here: cell count max response, cells fed with added oleic acid
Summary of the method: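 Drosophila S3 cells got compounds at several concentrations plus oleic acid (400 uM solution). Laser-scanning cytometry with 488 nm excitation read lipid droplets at 500-530 nm and cells at 575-640 nm. Percent activity was relative to 20 uM Triacsin C.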

[1] = measured here: lipid fluorescence (Fed channel) AC50, cells fed with added oleic acid
[2] = measured here: cell number channel AC50, cells fed with added oleic acid

Structure (SMILES)	AC50 [1]	cell number change [%]	AC50 [2]
O=C(NC1CCCC1)C(c1ccsc1)N(C(=O)Cc1cccs1)c1ccccc1 (centres undefined)	6.51 µM [falling, single point]	–	–
COc1ccc(N2CCN(C(=O)c3cc(C)oc3C)CC2)cc1	14.6 µM [rising, partial curve]	19.4	–
CC1(C)CC(=O)c2sc(NC(=O)CN3C(=O)CCC3=O)nc2C1	29.1 µM [falling, single point]	-78.4	16.4 µM [falling, single point]
N#Cc1cccc(CN2CCC(=O)N([C@H](CO)c3ccccc3)CC2)c1	–	1.29	–
O=C1c2ccccc2NC(c2ccc(-c3cccc([N+](=O)[O-])c3)o2)N1O (centres undefined)	6.51 µM [falling, single point]	2.5	–
CN(C)S(=O)(=O)c1cccc(NC(=O)c2ccccc2OCc2ccc(F)cc2)c1	35.5 µM [falling, partial curve]	342	29.1 µM [rising, single point]
O=C(CSc1ccc2c(c1)OCCO2)N1CCN(c2ccccc2O)CC1	–	38.5	3.26 µM [rising, partial curve, poor fit]
CCOC(=O)c1cnn(-c2ccccc2)c1-c1ccccc1	1.84 µM [falling, partial curve]	–	–
COc1cc(C(=O)NCC(=O)N/N=C/c2cccnc2)cc(OC)c1OC	0.58 µM [falling, single point]	-2.38	–
Cc1cc(NC(=O)CSc2ccc3nnc(-c4ccc(Cl)cc4)n3n2)no1	0.0651 µM [rising, full curve, poor fit]	-10.1	–
Cc1nc(SCc2ccccc2F)c2oc3ccccc3c2n1	1.84 µM [rising, partial curve, poor fit]	21.4	–
COc1ccc(CNS(=O)(=O)c2ccc(-n3cnnn3)c(OC)c2)cc1	0.206 µM [falling, single point]	11.8	–
COc1ccc(-c2noc(CN(C(=O)c3ccc4c(c3)OCO4)C(C)C)n2)cc1OC	–	100	11.6 µM [rising, partial curve]
CSc1nc2ccsc2c(=O)n1-c1ccccn1	0.00517 µM [falling, full curve, poor fit]	-15	–
CC(NC(=O)c1ccccc1)C(=O)OCC(=O)c1ccc(Br)cc1 (centres undefined)	29.1 µM [rising, single point]	24.5	–
Cc1cc(C)cc(N(C(C)C(=O)NCCC2=CCCCC2)S(C)(=O)=O)c1 (centres undefined)	–	25.9	0.461 µM [rising, full curve]
O=C(Nc1ccccn1)c1ccc(C(=O)Nc2ccccn2)cc1	29.1 µM [falling, single point]	-4.12	–
COc1cc2c(cc1OC)CN(CC(O)c1ccccc1)CC2 (centres undefined)	29.1 µM [rising, single point]	-14.3	–
COc1cccc(CN2CCN(Cc3cc4ccccc4o3)CC2CCO)c1 (centres undefined)	29.1 µM [rising, single point]	15	–

Retrieved by structure from above (two):
Structure (SMILES)	AC50 [1]	cell number change [%]	AC50 [2]
O=C(NC1CCCC1)C(c1ccsc1)N(C(=O)Cc1cccs1)c1ccccc1 (centres undefined)	6.51 µM [falling, single point]	–	–
COc1ccc(CNS(=O)(=O)c2ccc(-n3cnnn3)c(OC)c2)cc1	0.206 µM [falling, single point]	11.8	–

Later entries:

Structure (SMILES)	AC50 [1]	cell number change [%]	AC50 [2]
COC(=O)CCN(C(=O)c1ccc2c(c1)OCO2)c1ccccn1	0.651 µM [rising, full curve, poor fit]	–	2.06 µM [rising, single point]
CCOC(=O)c1c(NC(=O)Cn2nnc(-c3ccccc3Cl)n2)sc(C)c1C	6.51 µM [rising, single point]	1.2	–
CCN(CC)S(=O)(=O)c1cc(NC(=O)CSc2nnc(N)s2)ccc1C	14.6 µM [rising, partial curve]	38.6	16.4 µM [rising, partial curve, poor fit]
COc1cccc(CN2CCC(N(CCc3ccccc3)Cc3ccccc3)CC2)c1OC	13 µM [falling, partial curve]	-49.8	29.1 µM [falling, single point]
CCC(=O)N1c2ccccc2NC2=C(C(=O)CCC2)C1c1ccccc1 (centres undefined)	–	32.9	32.6 µM [rising, single point]
O=C(O)CNC(=O)c1ccc(NC(=O)/C(=C/c2ccccc2)NC(=O)c2ccco2)cc1	29.1 µM [rising, single point]	-24.8	–
CC(=O)N1CCc2cc(C(=O)CN3CCN(c4ccccc4F)CC3)ccc21	29.1 µM [rising, single point]	-2.97	–
CCOC(=O)C1=C(COC(=O)CCc2ccc(F)cc2)NC(=O)NC1C (centres undefined)	1.84 µM [rising, full curve, poor fit]	-2.07	–
Cn1c(SCc2nc3ccccc3s2)nnc1-c1ccc2c(c1)OCO2	0.326 µM [rising, full curve, poor fit]	2.63	–
Fc1ccc(/C=N/Nc2nc3ccccc3[nH]2)cc1F	9.2 µM [falling, single point]	-16.1	–
Cc1ccc(OCCNC(=O)c2cc(C(=O)NCCOc3ccc(C)cc3)cc([N+](=O)[O-])c2)cc1	6.51 µM [rising, single point]	-17	6.51 µM [rising, single point]
CCC(C)NC(=O)C1CCN(C(=O)c2ccccc2)CC1 (centres undefined)	0.103 µM [rising, full curve, poor fit]	44.4	0.206 µM [rising, full curve, poor fit]
COc1ccc(NC(=O)Nc2nnc(-c3ccncc3)s2)cc1	–	56.8	18.4 µM [rising, single point]
Fc1ccc(F)c(CNc2ncnc3cc(Cl)ccc23)c1	29.1 µM [falling, single point]	-45.7	29.1 µM [falling, single point]
O=C(c1sc2ccccc2c1Cl)N1CCN(c2ncccn2)CC1	29.1 µM [rising, partial curve, poor fit]	42.6	7.31 µM [rising, partial curve]
CN(Cc1ccccn1)C(=O)C1CCC(=O)N(CCc2ccc(Cl)cc2)C1 (centres undefined)	–	31.7	29.1 µM [rising, single point]
CCOC(=O)c1sc(N2C(=O)C(O)=C(C(=O)c3ccco3)C2c2ccco2)nc1C (centres undefined)	6.51 µM [falling, single point]	19.1	–
CC1CC(C)CN(C(=O)COC(=O)CNC(=O)C23CC4CC(CC(C4)C2)C3)C1 (centres undefined)	–	5	–
Cc1nnc(SCC(=O)NC(=O)NCc2ccco2)s1	0.116 µM [falling, full curve]	–	–

Structure (SMILES)	AC50 [1]	cell number change [%]	AC50 [2]
O=C(CCc1nc2ccccc2c(=O)[nH]1)Nc1cc(Cl)ccc1N1CCCC1	6.51 µM [falling, single point]	-0.645	–
Cc1ccc(-c2c[n+](CC(=O)Nc3ccc(C)cc3C)c3n2CCC3)cc1	2.06 µM [rising, partial curve, poor fit]	31.7	0.231 µM [rising, full curve, poor fit]
CCCCNC(=O)c1ccc2c(c1)C(=O)N(Cc1ccncc1)C2=O	–	-1.42	–
Cc1ccc(O)c(C(=O)CC(=O)c2ccc(Cl)cc2)c1	20.6 µM [falling, single point]	-61.8	29.1 µM [falling, single point]
OC(CON=C1c2ccccc2-c2ccccc21)CN1CCNCC1 (centres undefined)	–	-53	0.164 µM [falling, full curve, poor fit]
COc1ccc(CCNC(=O)c2cccnc2SC)cc1	6.51 µM [falling, full curve, poor fit]	20.7	–
C[n+]1ccccc1COc1ccc(C(C)(C)C)cc1	0.411 µM [falling, full curve]	17.3	–
c1ccc(CN2CCN(c3cnc4ccccc4n3)CC2)cc1	29.1 µM [falling, single point]	-39.5	29.1 µM [falling, single point]
CC(=O)C1[C@H](N(C)C)CC2C3CC=C4CC(O)CC[C@]4(C)C3CC[C@@]21C (some centres undefined)	–	-31.5	–
Cn1c(O)c(C=NC(CC(N)=O)C(=O)O)c(=O)n(C)c1=O (centres undefined)	0.00461 µM [falling, full curve, poor fit]	4.97	0.00651 µM [falling, full curve, poor fit]
COc1ccc(N2CCN(S(=O)(=O)c3cccc4nsnc34)CC2)cc1	–	-0.772	–
COc1ccc2nc(N3CCCC(C(=O)NCCc4ccc(OC)c(OC)c4)C3)sc2c1 (centres undefined)	29.1 µM [falling, single point]	-5.86	–
CCN1CCN(C(=O)C(C)Nc2cc(Cl)c(OC)cc2OC)CC1 (centres undefined)	–	10.1	0.116 µM [falling, full curve, poor fit]
O/C(=C\c1nc2ccccc2[nH]1)c1cccs1	29.1 µM [falling, single point]	14.1	–
CCCN(CCC)Cc1c(C(=O)N/N=C/c2ccsc2)nnn1-c1nonc1N	0.58 µM [falling, single point]	12.2	–
COCCCNC(=O)Cn1nnc(-c2ccc(NC(=O)c3cccnc3)cc2)n1	14.6 µM [rising, partial curve]	75.2	9.2 µM [rising, partial curve]
CCOC(=O)c1c(-c2ccc(-c3ccccc3)cc2)csc1NC(=O)CNCCN(C)C	29.1 µM [falling, single point]	-62.1	29.1 µM [falling, single point]
Cc1cccc(C)c1NC(=O)COC(=O)C1CC1	0.326 µM [rising, full curve]	13.7	0.58 µM [rising, full curve, poor fit]
